Reference: article PMC12257678
These are yes or no findings as the source states them, for the method shown. In cells and extracts the contact can be indirect. Some results given as binding are weak or reduced against the parent protein; the word gives no strength.

By UniProt entry, the sequences of proteins in these tests, tags left out.
UniProt O35800: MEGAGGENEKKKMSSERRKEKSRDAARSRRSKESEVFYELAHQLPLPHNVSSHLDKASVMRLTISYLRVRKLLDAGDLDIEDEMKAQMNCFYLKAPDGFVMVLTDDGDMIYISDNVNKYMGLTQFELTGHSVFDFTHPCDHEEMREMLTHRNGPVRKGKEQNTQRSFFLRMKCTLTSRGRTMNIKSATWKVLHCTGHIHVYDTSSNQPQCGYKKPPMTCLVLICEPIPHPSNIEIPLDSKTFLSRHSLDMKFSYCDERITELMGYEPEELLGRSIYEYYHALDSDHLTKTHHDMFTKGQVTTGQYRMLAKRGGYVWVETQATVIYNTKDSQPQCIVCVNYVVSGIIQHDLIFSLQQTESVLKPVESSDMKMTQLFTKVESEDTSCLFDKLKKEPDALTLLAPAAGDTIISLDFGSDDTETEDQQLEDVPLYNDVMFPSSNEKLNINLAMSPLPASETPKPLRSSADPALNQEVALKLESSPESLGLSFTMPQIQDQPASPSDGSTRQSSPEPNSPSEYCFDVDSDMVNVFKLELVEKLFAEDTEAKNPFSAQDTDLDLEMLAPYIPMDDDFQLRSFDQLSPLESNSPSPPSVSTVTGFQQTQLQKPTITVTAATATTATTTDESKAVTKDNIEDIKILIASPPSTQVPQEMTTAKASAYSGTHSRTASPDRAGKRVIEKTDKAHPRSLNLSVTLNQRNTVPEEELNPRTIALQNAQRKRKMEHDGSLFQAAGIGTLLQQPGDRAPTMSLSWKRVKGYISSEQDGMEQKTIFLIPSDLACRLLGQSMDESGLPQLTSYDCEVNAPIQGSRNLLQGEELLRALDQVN

Target: T1, Glycoprotein non-metastatic melanoma protein B (rat (endogenous in PC-12)) (UniProt Q6P7C7)
T1 sequence: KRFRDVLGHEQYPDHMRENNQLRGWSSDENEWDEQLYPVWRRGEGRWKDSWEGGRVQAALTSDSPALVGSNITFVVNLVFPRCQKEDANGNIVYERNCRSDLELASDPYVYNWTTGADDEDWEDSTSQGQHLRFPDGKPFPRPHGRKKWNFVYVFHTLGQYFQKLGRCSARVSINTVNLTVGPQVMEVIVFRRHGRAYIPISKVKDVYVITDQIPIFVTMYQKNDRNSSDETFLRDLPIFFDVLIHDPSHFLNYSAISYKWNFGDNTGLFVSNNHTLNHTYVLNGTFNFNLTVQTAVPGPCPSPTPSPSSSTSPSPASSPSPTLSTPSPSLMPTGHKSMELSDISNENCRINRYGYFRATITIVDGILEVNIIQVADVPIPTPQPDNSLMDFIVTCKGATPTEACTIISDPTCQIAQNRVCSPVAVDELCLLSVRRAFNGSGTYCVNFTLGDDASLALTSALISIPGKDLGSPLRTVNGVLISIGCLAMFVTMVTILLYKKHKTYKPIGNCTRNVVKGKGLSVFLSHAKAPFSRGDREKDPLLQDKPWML
Assay: co-IP; lysates of OGD-treated PC-12 cells (IP lysis buffer) incubated with anti-GPNMB or anti-HIF-1α antibody or normal IgG at 4 °C overnight; Protein A/G magnetic beads; eluates analysed by western blot

HIF-1α (from UniProt O35800 1-825)
binding: binds
